At least one compound was matched to its structure with a doubt left.
Tests used:
EAEC = assay: Effect of dialyzed supernatants of treated HEp-2 cells on EAEC adherence; format: cell-based, E. coli; details: HEp-2 treated 24 h with 64 mg/ml (so in the source); chambered slides with or without HEp-2 cells, 3 h
Method: Supernatant dialysis. HEp-2 cells were cultured in T-175 flasks as described above. […] After 24 h, the medium was collected, loaded into regenerated cellulose dialysis tubing (cutoff, 6 to 8 kDa; Spectra/Por, Rancho Domiguez, Calif.), and dialyzed against 4 liters of PBS changed four times. Each dialysis step lasted at least 6 h and was carried out at 4° C. Dialyzed supernatants were either used immediately in adherence assays or stored at −20° C. until use.
The effect of supernatants on EAEC adherence was determined by mixing EAEC with the dialyzed media from the different antibiotic (or control) treatment groups and adding the bacteria to HEp-2 cells cultured in chambered slides or to chambered slides with no HEp-2 cells. Adherence was visualized microscopically as described above.

EAEC strain O42 = format: cell-based, E. coli; details: HEp-2 cells pretreated 24 h, washed, EAEC 3 h, Wright-Giemsa staining

C[C@H]1c2cccc(O)c2C(=O)C2=C(O)[C@]3(O)C(=O)C(C(N)=O)=C(O)[C@@H](N(C)C)[C@@H]3[C@@H](O)[C@@H]21 [doxycycline]
Adherence of EAEC mixed with dialyzed supernatants from treated HEp-2 cells (EAEC): adhered to chambers independently of the presence of HEp-2 cells
EAEC O42 adherence to pretreated HEp-2 cells (microscopy, stacked-brick pattern) (EAEC strain O42): adhered in the traditional stacked-brick formation
